Results reported in article PMC8187744.
Results are given in words; binding and its absence hold for the method and conditions named. In cells and extracts the contact can be indirect. Some binding calls cover weakened binding; strength is not graded here.

The chains behind the UniProt entries cited, without tags or fusion partners. Where a name states a change or a piece, a line headed by the entry shows the natural chain unless it says otherwise. A line that says so, or that is headed by a name, gives the form on record, which may keep a tag or linker. Residues count along the entry.
UniProt O14744: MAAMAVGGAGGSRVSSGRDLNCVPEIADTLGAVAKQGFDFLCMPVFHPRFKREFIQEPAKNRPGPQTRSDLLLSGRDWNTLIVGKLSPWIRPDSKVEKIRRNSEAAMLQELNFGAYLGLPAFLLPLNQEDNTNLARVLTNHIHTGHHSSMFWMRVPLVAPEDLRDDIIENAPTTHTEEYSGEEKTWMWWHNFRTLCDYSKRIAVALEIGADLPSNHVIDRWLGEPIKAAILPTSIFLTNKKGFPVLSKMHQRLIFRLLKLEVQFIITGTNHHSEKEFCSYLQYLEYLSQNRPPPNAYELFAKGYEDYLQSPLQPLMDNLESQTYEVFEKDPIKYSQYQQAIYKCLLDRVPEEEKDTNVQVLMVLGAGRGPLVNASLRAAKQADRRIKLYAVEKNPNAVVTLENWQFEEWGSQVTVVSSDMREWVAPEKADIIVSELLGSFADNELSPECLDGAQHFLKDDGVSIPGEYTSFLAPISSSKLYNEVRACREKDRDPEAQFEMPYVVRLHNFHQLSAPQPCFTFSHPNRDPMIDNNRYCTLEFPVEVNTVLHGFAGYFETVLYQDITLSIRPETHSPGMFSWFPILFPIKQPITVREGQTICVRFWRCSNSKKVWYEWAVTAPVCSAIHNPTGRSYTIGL
UniProt P31749: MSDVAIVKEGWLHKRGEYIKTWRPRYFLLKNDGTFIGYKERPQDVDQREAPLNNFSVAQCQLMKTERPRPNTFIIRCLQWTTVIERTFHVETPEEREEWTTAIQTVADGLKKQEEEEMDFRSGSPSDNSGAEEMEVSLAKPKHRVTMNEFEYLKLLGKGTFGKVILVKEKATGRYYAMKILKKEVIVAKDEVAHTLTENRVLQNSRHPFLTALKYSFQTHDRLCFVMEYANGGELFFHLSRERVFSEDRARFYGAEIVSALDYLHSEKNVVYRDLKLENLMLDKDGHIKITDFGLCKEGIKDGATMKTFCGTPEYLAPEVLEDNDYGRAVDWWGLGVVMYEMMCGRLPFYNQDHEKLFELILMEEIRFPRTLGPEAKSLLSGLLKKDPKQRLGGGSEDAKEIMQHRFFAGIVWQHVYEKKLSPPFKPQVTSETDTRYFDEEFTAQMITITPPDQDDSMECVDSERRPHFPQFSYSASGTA
GST-AKT1-PH: residues 5-108 of P31749
HA-AKT1-KD-R391K (P31749, form named): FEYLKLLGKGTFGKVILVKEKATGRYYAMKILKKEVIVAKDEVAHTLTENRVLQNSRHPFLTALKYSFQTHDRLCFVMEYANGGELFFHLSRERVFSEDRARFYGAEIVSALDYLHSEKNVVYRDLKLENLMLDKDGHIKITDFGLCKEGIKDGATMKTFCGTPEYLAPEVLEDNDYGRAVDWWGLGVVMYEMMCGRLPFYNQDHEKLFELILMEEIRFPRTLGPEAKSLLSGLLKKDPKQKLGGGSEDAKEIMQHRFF
UniProt P23443: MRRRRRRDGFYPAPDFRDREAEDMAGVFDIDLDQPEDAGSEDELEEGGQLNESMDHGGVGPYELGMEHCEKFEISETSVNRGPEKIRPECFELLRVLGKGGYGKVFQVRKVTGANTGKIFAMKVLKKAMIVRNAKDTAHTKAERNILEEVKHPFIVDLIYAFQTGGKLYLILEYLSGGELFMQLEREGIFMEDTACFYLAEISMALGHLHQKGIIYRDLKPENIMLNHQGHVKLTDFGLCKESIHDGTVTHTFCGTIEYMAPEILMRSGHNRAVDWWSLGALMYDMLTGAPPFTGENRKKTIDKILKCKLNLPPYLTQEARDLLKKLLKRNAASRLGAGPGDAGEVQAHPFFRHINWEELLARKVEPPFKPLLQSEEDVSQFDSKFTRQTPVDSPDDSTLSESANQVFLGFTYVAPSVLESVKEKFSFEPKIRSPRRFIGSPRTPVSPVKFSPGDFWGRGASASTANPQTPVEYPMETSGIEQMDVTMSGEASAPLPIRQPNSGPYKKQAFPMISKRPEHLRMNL
UniProt Q99873: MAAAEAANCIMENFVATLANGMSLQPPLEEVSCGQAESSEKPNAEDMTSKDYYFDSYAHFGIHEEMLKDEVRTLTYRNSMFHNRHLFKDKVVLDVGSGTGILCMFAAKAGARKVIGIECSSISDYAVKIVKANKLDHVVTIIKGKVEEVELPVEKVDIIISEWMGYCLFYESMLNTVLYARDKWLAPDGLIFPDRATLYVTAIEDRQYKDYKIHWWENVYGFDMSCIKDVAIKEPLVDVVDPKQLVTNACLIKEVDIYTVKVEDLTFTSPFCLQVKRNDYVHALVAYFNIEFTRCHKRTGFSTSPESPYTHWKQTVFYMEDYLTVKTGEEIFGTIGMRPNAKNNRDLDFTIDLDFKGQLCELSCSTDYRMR

Legend:
[1] = molecular target: protein arginine methyltransferase 5 (PRMT5) (human (endogenous in MCF7)) (UniProt O14744); experiment: co-IP; endogenous proteins, MCF7 whole cell lysates; PRMT5 immunoprecipitated, IgG as negative control
[2] = molecular target: AKT1 (human (endogenous in MCF7)) (UniProt P31749); experiment: co-IP; endogenous proteins, MCF7 whole cell lysates; AKT1 immunoprecipitated, IgG as negative control
[3] = molecular target: AKT1 (human (endogenous in MCF7)) (UniProt P31749); experiment: co-IP; MCF7 cells serum-starved, then 100 nM insulin (or EGF) for indicated times; also PI3K inhibitors LY294002 (20 uM), Wortmannin (10 uM), Buparlisib (10 uM) for 12 h before insulin for 30 min
GST-AKT1-PH (human) = GST-AKT1-PH (human) (UniProt P31749); experiment: pull-down; GST pulldown from HEK293 cells transfected with indicated constructs; also with depletion of PRMT5 (Supplementary Fig. 5a)
HA-AKT1-R25C (human) = HA-AKT1-R25C (human) (UniProt P31749); experiment: co-IP; HEK293T cells transfected with indicated constructs; IB of WCLs and IP products
HA-AKT1 (human) = HA-AKT1 (human) (UniProt P31749); experiment: as above

AKT1 (from UniProt P31749 1-480)
binding [1]: binds

S6K1 (from UniProt P23443 1-525)
binding [1]: no binding

PRMT1 (from UniProt Q99873 1-371) (enzyme)
binding [2]: no binding

protein arginine methyltransferase 5 (PRMT5) (from UniProt O14744 1-637) (enzyme)
binding [2]: binds | binding [3]: binds

HA-AKT1-KD-R391K (from UniProt P31749 150-408) (domain or fragment)
binding (GST-AKT1-PH (human)): binds

protein arginine methyltransferase 5 (PRMT5), in cells transfected with AKT constructs (from UniProt O14744 1-637) (enzyme)
binding (HA-AKT1-R25C (human)): binds | binding (HA-AKT1 (human)): binds

HA-AKT1-KD (from UniProt P31749 150-408) (domain or fragment)
binding (GST-AKT1-PH (human)): binds
